The list shows a part of the results.
Key:
Test in all cases: log2 fold change, soluble protein after heating vs DMSO (PISA); higher = thermal stabilisation; K562 lysate, 10 uM; active = over 0.2 and 3.5 SD of the protein, either way, in both replicates (recomputed)
[1] = compound: C#Cc1cccc(Nc2ncnc3cc(OCCOC)c(OCCOC)cc23)c1 [erlotinib]
In short: (§1)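 Dounce homogenisation of K562 pellets in PBS pH 7.4 with 1 mM MgCl2 produced a crude extract, used at 1 mg/mL protein. Exposure to 10 μM compound lasted 30 min, and aliquots were then heated for 3 min across 48°C-58°C, pooled and brought to 0.5% NP-40 at 4°C. The supernatant after 21,000xg for 90 min was quantified by TMTpro 16plex LC-MS/MS with channel sums equalised. Duplicate values are given as log-two fold change in thermal stability relative to solvent controls.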

Amino acid sequences for entries named in this document (tags omitted). A change or cut given only in a name is not applied to a line headed by its entry.
UniProt P25815: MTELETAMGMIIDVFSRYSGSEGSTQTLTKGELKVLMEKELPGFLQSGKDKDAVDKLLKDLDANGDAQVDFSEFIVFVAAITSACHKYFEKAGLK
UniProt P60468, whole entry, looked up: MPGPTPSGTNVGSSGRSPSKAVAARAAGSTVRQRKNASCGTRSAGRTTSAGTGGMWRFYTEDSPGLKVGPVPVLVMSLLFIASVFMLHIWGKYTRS
UniProt Q9NR31: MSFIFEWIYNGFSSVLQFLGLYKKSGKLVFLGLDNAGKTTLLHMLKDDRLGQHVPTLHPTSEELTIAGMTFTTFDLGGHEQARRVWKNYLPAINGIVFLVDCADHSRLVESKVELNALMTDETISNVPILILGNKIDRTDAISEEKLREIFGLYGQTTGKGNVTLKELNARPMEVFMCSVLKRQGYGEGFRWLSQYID
UniProt O95487: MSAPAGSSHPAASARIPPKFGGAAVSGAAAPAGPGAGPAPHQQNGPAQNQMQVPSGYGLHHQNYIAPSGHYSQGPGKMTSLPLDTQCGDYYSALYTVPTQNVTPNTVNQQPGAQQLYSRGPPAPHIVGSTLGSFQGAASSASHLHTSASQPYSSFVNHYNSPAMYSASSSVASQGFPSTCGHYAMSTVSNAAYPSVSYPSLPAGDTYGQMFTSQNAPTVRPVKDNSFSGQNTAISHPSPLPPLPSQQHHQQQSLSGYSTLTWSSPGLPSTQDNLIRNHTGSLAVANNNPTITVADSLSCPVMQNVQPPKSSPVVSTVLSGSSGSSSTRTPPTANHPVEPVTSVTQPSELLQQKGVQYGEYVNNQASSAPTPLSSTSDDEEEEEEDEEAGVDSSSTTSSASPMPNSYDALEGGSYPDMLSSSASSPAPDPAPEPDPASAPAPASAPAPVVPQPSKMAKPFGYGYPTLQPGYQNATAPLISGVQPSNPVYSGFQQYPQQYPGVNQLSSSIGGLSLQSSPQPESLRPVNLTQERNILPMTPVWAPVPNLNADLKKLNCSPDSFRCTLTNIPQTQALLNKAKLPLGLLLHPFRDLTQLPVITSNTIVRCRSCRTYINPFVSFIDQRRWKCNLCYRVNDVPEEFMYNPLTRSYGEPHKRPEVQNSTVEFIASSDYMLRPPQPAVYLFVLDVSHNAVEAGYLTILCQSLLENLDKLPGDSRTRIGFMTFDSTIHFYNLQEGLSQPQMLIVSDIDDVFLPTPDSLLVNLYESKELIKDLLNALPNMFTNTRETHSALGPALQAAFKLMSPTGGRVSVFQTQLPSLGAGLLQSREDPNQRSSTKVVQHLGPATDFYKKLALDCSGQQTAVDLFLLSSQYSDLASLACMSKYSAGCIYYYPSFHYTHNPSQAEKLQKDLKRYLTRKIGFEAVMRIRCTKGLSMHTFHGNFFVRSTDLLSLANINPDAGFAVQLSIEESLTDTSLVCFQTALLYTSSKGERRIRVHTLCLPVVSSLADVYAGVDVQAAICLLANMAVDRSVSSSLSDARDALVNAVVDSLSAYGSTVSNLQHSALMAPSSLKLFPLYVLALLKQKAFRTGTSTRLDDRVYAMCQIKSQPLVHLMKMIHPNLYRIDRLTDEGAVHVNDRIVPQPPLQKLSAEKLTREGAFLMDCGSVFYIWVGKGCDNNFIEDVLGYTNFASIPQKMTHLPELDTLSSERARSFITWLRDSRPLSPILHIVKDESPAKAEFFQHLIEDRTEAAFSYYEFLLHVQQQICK
UniProt P60059: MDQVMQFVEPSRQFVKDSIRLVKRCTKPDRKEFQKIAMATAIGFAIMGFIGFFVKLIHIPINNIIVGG
UniProt Q6IQ49: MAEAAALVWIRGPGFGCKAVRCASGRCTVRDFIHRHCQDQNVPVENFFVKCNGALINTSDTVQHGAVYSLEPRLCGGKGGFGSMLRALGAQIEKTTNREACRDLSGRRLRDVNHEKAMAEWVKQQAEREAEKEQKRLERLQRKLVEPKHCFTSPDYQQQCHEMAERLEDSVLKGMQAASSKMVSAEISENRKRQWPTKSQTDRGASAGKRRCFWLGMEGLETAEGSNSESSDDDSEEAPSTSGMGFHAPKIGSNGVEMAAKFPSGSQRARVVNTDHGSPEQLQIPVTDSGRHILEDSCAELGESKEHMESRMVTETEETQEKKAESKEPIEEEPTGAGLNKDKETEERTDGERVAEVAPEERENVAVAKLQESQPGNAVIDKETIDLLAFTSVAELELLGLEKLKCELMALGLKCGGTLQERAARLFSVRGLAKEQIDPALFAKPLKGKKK
UniProt O95104: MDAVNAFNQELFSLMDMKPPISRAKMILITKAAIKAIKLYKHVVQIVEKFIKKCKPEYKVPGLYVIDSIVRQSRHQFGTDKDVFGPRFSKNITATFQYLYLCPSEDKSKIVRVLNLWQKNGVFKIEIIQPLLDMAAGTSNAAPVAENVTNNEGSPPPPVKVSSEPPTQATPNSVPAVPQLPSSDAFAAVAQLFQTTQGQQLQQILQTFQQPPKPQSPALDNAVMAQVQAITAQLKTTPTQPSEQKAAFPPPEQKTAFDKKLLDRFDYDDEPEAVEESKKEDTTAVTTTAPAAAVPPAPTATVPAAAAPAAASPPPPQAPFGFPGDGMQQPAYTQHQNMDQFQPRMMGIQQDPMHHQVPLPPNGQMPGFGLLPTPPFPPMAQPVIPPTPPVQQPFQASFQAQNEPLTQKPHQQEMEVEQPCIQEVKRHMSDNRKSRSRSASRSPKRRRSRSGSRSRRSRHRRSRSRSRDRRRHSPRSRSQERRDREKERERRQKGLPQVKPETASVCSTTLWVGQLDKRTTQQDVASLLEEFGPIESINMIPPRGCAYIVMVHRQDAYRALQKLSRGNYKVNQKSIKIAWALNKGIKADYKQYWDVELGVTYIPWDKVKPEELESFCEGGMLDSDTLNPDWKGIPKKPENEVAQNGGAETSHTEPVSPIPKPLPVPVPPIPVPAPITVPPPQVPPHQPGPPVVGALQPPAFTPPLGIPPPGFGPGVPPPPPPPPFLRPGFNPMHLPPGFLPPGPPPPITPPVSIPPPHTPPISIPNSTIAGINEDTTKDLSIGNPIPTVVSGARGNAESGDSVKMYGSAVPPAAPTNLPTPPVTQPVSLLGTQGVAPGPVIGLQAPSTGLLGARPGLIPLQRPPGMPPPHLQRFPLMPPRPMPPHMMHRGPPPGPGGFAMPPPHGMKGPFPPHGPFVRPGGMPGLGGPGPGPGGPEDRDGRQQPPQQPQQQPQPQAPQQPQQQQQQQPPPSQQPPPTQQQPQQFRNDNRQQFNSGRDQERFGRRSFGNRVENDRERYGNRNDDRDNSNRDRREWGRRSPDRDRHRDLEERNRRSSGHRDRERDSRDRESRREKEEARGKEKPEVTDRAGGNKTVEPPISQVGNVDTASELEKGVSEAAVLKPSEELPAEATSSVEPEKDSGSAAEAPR
UniProt Q9UPN6: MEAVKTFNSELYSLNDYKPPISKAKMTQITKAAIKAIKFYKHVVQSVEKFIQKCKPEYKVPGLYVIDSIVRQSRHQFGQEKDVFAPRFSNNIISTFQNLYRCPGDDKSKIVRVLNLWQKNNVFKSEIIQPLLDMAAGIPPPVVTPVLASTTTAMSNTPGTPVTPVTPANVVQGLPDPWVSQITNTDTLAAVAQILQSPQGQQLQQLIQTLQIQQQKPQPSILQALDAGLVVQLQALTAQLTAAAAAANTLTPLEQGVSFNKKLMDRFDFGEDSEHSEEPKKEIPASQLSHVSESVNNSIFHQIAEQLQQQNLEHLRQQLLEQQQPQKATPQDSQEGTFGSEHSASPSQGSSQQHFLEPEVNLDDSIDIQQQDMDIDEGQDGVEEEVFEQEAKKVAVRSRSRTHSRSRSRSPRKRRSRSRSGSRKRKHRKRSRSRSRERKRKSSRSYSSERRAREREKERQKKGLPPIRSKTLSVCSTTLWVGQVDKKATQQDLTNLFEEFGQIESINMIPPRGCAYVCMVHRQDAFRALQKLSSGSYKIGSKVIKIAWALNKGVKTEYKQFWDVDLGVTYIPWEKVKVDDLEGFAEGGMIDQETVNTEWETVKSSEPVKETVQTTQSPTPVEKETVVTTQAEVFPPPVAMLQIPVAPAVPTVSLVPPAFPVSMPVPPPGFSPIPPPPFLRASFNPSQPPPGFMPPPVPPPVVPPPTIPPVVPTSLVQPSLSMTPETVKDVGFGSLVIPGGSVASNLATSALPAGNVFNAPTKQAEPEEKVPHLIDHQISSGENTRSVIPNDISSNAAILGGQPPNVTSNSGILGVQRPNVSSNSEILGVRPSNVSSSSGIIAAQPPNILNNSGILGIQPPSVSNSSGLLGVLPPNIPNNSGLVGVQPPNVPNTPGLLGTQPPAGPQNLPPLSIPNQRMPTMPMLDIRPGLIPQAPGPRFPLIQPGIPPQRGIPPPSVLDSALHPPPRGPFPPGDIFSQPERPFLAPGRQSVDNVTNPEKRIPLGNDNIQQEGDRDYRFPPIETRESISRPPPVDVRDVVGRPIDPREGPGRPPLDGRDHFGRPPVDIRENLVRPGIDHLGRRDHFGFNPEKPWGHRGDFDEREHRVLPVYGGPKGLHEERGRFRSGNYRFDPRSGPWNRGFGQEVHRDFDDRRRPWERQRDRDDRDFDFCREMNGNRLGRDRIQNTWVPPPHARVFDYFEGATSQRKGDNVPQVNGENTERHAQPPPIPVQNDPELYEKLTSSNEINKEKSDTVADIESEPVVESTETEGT
UniProt O00767: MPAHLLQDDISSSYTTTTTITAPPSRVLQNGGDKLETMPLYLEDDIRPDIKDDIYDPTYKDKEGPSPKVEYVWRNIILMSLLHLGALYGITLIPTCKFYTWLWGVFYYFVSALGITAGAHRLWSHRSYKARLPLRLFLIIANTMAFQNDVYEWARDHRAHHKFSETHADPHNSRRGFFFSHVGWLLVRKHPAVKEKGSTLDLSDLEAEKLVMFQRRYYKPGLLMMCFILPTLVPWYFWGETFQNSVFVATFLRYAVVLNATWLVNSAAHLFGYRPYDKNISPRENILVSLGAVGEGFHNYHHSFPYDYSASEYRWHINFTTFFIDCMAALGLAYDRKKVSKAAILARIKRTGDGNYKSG
UniProt Q9HB40: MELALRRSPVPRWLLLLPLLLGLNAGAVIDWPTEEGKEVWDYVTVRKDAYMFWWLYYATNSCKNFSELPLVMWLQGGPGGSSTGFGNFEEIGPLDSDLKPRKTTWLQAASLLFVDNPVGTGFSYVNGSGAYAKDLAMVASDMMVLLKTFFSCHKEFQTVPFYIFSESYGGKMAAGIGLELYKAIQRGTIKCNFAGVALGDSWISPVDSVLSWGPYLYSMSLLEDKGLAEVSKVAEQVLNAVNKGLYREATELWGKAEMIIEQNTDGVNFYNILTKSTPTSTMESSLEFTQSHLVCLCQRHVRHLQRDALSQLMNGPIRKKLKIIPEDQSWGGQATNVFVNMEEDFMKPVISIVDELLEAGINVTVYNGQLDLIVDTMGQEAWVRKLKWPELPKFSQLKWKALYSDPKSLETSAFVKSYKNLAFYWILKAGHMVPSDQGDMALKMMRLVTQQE
UniProt Q96BU1: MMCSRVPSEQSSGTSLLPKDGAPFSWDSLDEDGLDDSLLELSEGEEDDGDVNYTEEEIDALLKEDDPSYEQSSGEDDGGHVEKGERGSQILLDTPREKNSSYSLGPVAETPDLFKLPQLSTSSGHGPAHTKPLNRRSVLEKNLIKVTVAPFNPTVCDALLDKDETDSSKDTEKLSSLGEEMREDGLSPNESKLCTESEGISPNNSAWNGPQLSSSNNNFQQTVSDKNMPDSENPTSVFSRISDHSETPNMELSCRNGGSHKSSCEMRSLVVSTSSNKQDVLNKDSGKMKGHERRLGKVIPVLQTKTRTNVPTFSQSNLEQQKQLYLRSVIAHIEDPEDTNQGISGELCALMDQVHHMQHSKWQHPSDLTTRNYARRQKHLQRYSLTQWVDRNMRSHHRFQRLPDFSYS
UniProt O00560: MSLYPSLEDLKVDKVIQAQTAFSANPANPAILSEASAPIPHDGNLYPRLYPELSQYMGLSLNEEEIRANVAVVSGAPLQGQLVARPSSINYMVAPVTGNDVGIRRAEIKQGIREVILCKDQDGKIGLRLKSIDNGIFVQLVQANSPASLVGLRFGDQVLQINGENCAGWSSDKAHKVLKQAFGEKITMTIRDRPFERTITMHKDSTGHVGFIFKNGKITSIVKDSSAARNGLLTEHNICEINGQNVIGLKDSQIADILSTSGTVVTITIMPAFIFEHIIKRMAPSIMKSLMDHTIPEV
UniProt O43819: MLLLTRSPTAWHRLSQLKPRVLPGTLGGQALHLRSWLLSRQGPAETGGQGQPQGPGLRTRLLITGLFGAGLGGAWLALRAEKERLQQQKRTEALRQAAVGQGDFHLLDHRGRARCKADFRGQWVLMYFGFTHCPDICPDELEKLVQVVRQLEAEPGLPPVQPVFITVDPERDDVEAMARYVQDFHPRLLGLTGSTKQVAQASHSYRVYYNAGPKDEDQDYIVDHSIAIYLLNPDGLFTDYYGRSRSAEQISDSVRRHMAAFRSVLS

[2] = compound: C/C(=N\NC(=O)C1=CC(=CC=C1)S(=O)(=O)N2CCOCC2)/C3=C(C=CC(=C3)Cl)O
In short: as §1

[3] = compound: C1=CC(=CC=C1C2=NC3=C(N2)C=C(C=C3)C(=O)N)OC4=CC=C(C=C4)Cl
In short: as §1

[4] = compound: C1=CC2=C(C=CC(=C2)/C=C\3/C(=O)NC(=NCC4=CC=CS4)S3)N=C1
In short: as §1

[5] = compound: C1=CC2=NC=CN=C2C=C1/C=C/3\C(=O)NC(=O)S3
In short: as §1

[6] = compound: C1=CC=C(C=C1)C2=NC(=C(N2)C3=CC=NC=C3)C4=CC(=C(C=C4)Cl)O
In short: as §1

[7] = compound: C1=CC=C2C(=C1)C3=NNC4=CC=CC(=C43)C2=O
In short: as §1

[8] = compound: C1CCN(C1)C(=O)NC2=CC=CC(=C2)NC3=NC=C(C(=N3)NCCC4=CN=CN4)Br
In short: as §1

[9] = compound: C1CN(CCC1(CC2=CC=C(C=C2)Cl)N)C3=NC=NC4=C3C=CN4
In short: as §1

[10] = compound: C1COCCN1CCN2C3=CC=CC=C3N=C2NC(=O)C4=CC(=CC=C4)[N+](=O)[O-] [IRAK-1-4 Inhibitor I]
In short: as §1

[11] = compound: C=CC(=O)N1CCC[C@@H](n2nc(-c3ccc(Oc4ccccc4)cc3)c3c(N)ncnc32)C1 [ibrutinib]
In short: as §1

[12] = compound: CC(=O)c1cnc2ccc(-c3cc(Cl)c(O)c(Cl)c3)nc2c1N[C@H]1CC[C@H](CN(C)C)CC1
In short: as §1

[13] = compound: CC(C)(C)Cn1c(N)nc2ccc(-c3[nH]c(C(C)(C)C)nc3-c3ccc(F)cc3)nc21 [ralimetinib]
In short: as §1

[14] = compound: CC(C)(O)CC(=O)NCCn1ccc2ncnc(Nc3ccc(Oc4cccc(C(F)(F)F)c4)c(Cl)c3)c21
In short: as §1

[15] = compound: CC(C)C1=C2N=C(C=C(N2N=C1)NCC3=CC=CC=C3)NCCCCCCN
In short: as §1

[16] = compound: CC1=C(C(CC(=O)N1)C2=CC=C(C=C2)C(F)(F)F)C(=O)NC3=C(C=C4C(=C3)C=NN4)F
In short: as §1

[17] = compound: CC1=C(C2=C(C=C1)C(=O)C3=CC=CC=C3N2CCCN)C
In short: as §1

[18] = compound: CC1=C(C=C(C=C1)NC(=O)C2=CC(=CC=C2)C(C)(C)C#N)NC3=CC4=C(C=C3)N=CN(C4=O)C
In short: as §1

[19] = compound: CC1=C(C=C(C=C1)NC(=O)C2=CC(=CC=C2)N(C)C)NC(=O)C3=CC=C(C=C3)O
In short: as §1

[20] = compound: CC1=CC=C(C=C1)SC2=C3C=C(SC3=CN=C2)C(=O)N
In short: as §1

Measured: log2 fold change

S100P (UniProt P25815)
inactive: [1] 0.054 | [2] 0.137 | [3] -0.051 | [4] 0.002 | [5] -0.075 | [6] -0.004 | [7] -0.086 | [8] 0.034 | [9] 0.033 | [10] 0.018 | [11] 0.011 | [12] -0.036 | [13] 0 | [14] -0.007 | [15] 0.02 | [16] -0.078 | [17] 0.061 | [18] 0.116 | [19] 0.054 | [20] 0.074

SEC61B (UniProt P60468)
inactive: [1] -0.006 | [2] 0.016 | [3] -0.006 | [4] -0.012 | [5] -0.013 | [6] -0.021 | [7] 0.054 | [8] -0.042 | [9] -0.068 | [10] 0 | [11] -0.034 | [12] 0.008 | [13] 0.012 | [14] -0.056 | [15] -0.05 | [16] 0.042 | [17] 0.089 | [18] -0.063 | [19] 0.026 | [20] -0.041

SAR1A (UniProt Q9NR31)
inactive: [1] -0.268 | [2] -0.112 | [3] 0.05 | [4] -0.019 | [5] -0.063 | [6] -0.056 | [7] 0.048 | [8] -0.08 | [9] 0.001 | [10] -0.029 | [11] -0.082 | [12] -0.105 | [13] 0.027 | [14] -0.028 | [15] 0.026 | [16] 0.163 | [17] -0.042 | [18] 0.021 | [19] -0.045 | [20] 0.112

SEC13 isoform 3 (UniProt P55735)
inactive: [1] 0.032 | [2] 0.02 | [3] 0.009 | [4] -0.019 | [5] 0 | [6] -0.001 | [7] -0.033 | [8] -0.019 | [9] 0.006 | [10] -0.028 | [11] -0.084 | [12] -0.025 | [13] 0.024 | [14] -0.01 | [15] -0.015 | [16] -0.005 | [17] 0.034 | [18] -0.032 | [19] 0.031 | [20] -0.014

SEC24B isoform 3 (UniProt O95487)
inactive: [1] 0.012 | [2] 0.035 | [3] 0.003 | [4] 0.043 | [5] 0.022 | [6] -0.019 | [7] 0.021 | [8] -0.007 | [9] 0.056 | [10] 0.026 | [11] 0.044 | [12] -0.005 | [13] -0.012 | [14] -0.028 | [15] 0.023 | [16] -0.039 | [17] -0.01 | [18] -0.016 | [19] -0.015 | [20] -0.023

SEC61G (UniProt P60059)
inactive: [1] 0.065 | [2] -0.196 | [3] -0.111 | [4] 0.032 | [5] 0.043 | [6] 0.032 | [7] -0.126 | [8] -0.096 | [9] 0.065 | [10] 0.083 | [11] 0.037 | [12] 0 | [13] -0.019 | [14] -0.229 | [15] -0.052 | [16] -0.081 | [17] -0.053 | [18] 0.071 | [19] 0.004 | [20] 0.052

SDE2 (UniProt Q6IQ49)
inactive: [1] -0.057 | [2] 0.003 | [3] 0.015 | [4] -0.012 | [5] -0.01 | [6] 0.025 | [7] 0.043 | [8] 0 | [9] -0.015 | [10] 0.011 | [11] 0.026 | [12] -0.015 | [13] -0.003 | [14] 0.002 | [15] 0.02 | [16] -0.038 | [17] 0.008 | [18] -0.002 | [19] 0 | [20] -0.029

SART3, A0A499FI31
inactive: [1] -0.006 | [2] -0.033 | [3] -0.027 | [4] 0.029 | [5] -0.007 | [6] 0.01 | [7] -0.004 | [8] -0.002 | [9] -0.007 | [10] -0.01 | [11] -0.031 | [12] -0.007 | [13] 0.019 | [14] 0.001 | [15] 0.001 | [16] -0.015 | [17] 0.018 | [18] 0.022 | [19] 0.017 | [20] 0.001

SCAF4 (UniProt O95104)
inactive: [1] 0.049 | [2] 0.021 | [3] 0.039 | [4] 0 | [5] -0.038 | [6] -0.007 | [7] -0.069 | [8] -0.034 | [9] 0.025 | [10] -0.04 | [11] 0 | [12] 0.041 | [13] 0.01 | [14] -0.029 | [15] -0.003 | [16] 0.005 | [17] -0.004 | [18] -0.042 | [19] 0.045 | [20] -0.003

SCAF8 (UniProt Q9UPN6)
inactive: [1] 0.067 | [2] 0.005 | [3] 0.039 | [4] -0.011 | [5] -0.051 | [6] -0.027 | [7] 0.007 | [8] -0.051 | [9] 0.015 | [10] 0.002 | [11] 0.026 | [12] -0.006 | [13] 0.02 | [14] -0.002 | [15] 0.016 | [16] -0.001 | [17] 0.001 | [18] -0.074 | [19] 0.01 | [20] 0.024

SCD (UniProt O00767)
inactive: [1] 0.075 | [2] -0.093 | [3] 0.027 | [4] 0.056 | [5] -0.012 | [6] 0.009 | [7] 0.011 | [8] -0.24 | [9] -0.021 | [10] 0.07 | [11] -0.06 | [12] -0.053 | [13] 0.059 | [14] -0.009 | [15] -0.052 | [16] 0.032 | [17] 0.047 | [18] 0.02 | [19] -0.085 | [20] -0.128

Copied from the listing (two entries):
SEC61B (UniProt P60468)
inactive: [1] -0.006 | [2] 0.016 | [3] -0.006 | [4] -0.012 | [5] -0.013 | [6] -0.021 | [7] 0.054 | [8] -0.042 | [9] -0.068 | [10] 0 | [11] -0.034 | [12] 0.008 | [13] 0.012 | [14] -0.056 | [15] -0.05 | [16] 0.042 | [17] 0.089 | [18] -0.063 | [19] 0.026 | [20] -0.041

SAR1A (UniProt Q9NR31)
inactive: [1] -0.268 | [2] -0.112 | [3] 0.05 | [4] -0.019 | [5] -0.063 | [6] -0.056 | [7] 0.048 | [8] -0.08 | [9] 0.001 | [10] -0.029 | [11] -0.082 | [12] -0.105 | [13] 0.027 | [14] -0.028 | [15] 0.026 | [16] 0.163 | [17] -0.042 | [18] 0.021 | [19] -0.045 | [20] 0.112

Next part:

SCPEP1 (UniProt Q9HB40)
inactive: [1] 0.021 | [2] 0.072 | [3] -0.043 | [4] 0.022 | [5] 0.009 | [6] 0.017 | [7] -0.03 | [8] 0.17 | [9] -0.027 | [10] -0.002 | [11] 0.024 | [12] -0.018 | [13] 0 | [14] -0.011 | [15] 0.026 | [16] 0.049 | [17] -0.08 | [18] -0.012 | [19] -0.223 | [20] -0.006

S100PBP (UniProt Q96BU1)
inactive: [1] -0.071 | [2] -0.157 | [3] 0.027 | [4] 0.006 | [5] -0.081 | [6] 0.017 | [7] -0.105 | [8] -0.206 | [9] -0.085 | [10] 0.02 | [11] -0.056 | [12] -0.011 | [13] 0.038 | [14] -0.019 | [15] -0.083 | [16] -0.087 | [17] -0.004 | [18] 0.088 | [19] -0.001 | [20] 0.057

SEC31A (UniProt D6REX3)
inactive: [1] -0.005 | [2] -0.073 | [3] -0.005 | [4] 0.004 | [5] -0.003 | [6] 0.02 | [7] 0.025 | [8] -0.004 | [9] -0.002 | [10] 0.01 | [11] 0.003 | [12] -0.003 | [13] -0.008 | [14] -0.012 | [15] -0.016 | [16] -0.003 | [17] 0.035 | [18] 0.013 | [19] -0.004 | [20] 0.012

SDCBP (UniProt O00560)
inactive: [1] -0.049 | [2] 0.05 | [3] 0 | [4] -0.005 | [5] 0.026 | [6] 0.021 | [7] 0.099 | [8] -0.037 | [9] -0.006 | [10] 0.047 | [11] 0.024 | [12] -0.004 | [13] -0.018 | [14] 0.059 | [15] 0.035 | [16] 0.008 | [17] 0.006 | [18] 0.039 | [19] -0.021 | [20] -0.003

SCO2 (UniProt O43819)
inactive: [1] 0.055 | [2] -0.09 | [3] 0.057 | [4] 0.023 | [5] -0.017 | [6] 0.085 | [7] 0.035 | [8] 0.014 | [9] 0.041 | [10] -0.015 | [11] -0.021 | [12] -0.065 | [13] -0.02 | [14] -0.142 | [15] 0 | [16] -0.258 | [17] -0.009 | [18] 0.017 | [19] 0.01 | [20] -0.117

— the supplement of paper PMC10849652
